# Source: ChEMBL document CHEMBL2218924, “A broad activity screen in support of a chemogenomic map for kinase signalling research and drug discovery” (Biochem J, 2013)
# Amino acid sequences for entries named in this document (tags omitted). A change or cut given only in a name is not applied to a line headed by its entry.
# UniProt Q13555: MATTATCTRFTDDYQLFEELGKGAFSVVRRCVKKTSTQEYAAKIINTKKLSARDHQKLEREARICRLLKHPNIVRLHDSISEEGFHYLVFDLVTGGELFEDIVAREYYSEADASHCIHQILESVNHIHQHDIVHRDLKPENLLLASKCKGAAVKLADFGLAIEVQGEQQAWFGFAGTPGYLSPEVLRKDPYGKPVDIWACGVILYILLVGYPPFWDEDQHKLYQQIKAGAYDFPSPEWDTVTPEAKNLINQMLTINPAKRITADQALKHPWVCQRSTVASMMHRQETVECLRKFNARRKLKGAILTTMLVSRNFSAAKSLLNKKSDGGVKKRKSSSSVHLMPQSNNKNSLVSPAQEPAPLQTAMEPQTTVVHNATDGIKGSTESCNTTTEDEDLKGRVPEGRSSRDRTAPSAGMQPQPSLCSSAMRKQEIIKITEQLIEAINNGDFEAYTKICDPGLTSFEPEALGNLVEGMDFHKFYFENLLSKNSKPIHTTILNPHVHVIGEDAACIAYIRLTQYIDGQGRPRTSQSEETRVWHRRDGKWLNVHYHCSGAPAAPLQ
# UniProt Q86Z02: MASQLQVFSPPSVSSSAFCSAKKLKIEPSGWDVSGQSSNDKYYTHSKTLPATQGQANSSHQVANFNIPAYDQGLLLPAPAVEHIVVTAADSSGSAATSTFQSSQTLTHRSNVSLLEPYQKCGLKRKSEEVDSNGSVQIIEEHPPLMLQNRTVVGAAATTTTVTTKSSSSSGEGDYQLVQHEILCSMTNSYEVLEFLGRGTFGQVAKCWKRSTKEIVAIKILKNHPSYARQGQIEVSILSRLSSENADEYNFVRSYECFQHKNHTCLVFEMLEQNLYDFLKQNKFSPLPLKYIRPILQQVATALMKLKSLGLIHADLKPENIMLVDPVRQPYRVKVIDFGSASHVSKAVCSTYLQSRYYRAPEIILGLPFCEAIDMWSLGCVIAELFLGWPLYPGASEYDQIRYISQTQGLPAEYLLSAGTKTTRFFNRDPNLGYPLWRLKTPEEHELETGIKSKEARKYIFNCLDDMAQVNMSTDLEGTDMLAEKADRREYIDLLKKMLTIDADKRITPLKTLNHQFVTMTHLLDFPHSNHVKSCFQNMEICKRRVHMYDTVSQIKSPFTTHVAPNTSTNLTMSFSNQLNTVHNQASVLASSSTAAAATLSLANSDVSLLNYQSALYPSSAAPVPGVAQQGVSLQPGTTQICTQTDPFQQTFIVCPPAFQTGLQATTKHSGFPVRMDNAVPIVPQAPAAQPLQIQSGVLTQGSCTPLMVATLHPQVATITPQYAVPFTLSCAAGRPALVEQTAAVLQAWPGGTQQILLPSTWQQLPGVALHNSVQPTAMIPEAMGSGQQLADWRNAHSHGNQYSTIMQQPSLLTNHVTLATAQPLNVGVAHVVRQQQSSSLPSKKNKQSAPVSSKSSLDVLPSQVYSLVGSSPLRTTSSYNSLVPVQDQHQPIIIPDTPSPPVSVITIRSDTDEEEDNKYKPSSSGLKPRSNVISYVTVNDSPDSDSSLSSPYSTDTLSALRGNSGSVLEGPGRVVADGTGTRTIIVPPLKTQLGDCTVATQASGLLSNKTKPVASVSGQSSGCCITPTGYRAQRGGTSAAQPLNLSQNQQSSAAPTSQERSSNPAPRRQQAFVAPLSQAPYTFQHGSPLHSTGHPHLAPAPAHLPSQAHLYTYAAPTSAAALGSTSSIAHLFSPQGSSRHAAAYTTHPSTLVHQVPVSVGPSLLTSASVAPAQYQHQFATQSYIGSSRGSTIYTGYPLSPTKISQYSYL
# UniProt P80192: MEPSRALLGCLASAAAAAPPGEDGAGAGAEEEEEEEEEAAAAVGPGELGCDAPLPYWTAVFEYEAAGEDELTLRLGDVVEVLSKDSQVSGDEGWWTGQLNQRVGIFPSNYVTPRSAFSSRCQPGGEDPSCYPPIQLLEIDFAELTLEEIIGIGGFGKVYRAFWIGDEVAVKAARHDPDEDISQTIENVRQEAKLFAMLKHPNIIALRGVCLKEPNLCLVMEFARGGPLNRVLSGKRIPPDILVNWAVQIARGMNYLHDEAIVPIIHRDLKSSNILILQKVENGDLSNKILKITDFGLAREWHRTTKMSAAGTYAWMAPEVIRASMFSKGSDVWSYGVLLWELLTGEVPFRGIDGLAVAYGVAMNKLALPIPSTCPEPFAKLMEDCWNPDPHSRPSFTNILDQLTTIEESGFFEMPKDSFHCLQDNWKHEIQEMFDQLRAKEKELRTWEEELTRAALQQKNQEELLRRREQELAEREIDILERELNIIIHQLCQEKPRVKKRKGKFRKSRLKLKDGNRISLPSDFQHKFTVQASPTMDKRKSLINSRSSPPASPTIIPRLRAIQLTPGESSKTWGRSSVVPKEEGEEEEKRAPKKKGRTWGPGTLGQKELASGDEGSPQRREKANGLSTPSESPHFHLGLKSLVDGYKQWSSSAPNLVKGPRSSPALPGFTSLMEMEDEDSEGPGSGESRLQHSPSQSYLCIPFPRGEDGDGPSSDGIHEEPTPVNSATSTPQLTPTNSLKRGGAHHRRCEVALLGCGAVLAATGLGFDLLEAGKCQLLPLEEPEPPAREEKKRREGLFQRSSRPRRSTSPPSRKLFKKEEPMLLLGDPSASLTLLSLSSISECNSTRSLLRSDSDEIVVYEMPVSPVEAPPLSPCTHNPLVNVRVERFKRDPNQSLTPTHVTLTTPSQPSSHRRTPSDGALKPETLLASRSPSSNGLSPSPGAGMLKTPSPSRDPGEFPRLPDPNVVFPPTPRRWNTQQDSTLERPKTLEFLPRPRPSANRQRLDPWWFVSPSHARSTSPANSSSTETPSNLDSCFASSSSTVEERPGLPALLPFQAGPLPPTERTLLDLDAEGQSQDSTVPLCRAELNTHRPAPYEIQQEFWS
# UniProt Q86Y07: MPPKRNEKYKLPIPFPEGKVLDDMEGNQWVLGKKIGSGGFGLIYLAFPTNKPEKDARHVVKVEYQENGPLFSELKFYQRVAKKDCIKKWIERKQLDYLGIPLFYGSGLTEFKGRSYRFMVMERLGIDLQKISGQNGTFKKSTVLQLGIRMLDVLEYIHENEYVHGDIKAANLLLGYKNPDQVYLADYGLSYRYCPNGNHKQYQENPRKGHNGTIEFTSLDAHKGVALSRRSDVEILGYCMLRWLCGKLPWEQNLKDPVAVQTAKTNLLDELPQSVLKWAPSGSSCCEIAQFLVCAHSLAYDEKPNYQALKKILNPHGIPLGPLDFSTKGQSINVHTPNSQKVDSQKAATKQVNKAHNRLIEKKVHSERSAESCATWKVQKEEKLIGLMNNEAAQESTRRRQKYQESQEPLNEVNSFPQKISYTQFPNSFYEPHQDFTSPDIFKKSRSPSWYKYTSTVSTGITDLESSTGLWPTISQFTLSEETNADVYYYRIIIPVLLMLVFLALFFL
# Only a part is listed here, and it is no random draw.
# Legend:
# [1] = target: Calcium/calmodulin-dependent protein kinase type II subunit gamma (Homo sapiens) (UniProt Q13555); conditions: at 1 µM
# [2] = target: Calcium/calmodulin-dependent protein kinase type II subunit gamma (Homo sapiens) (UniProt Q13555); conditions: at 10 µM
# [3] = target: Homeodomain-interacting protein kinase 1 (Homo sapiens) (UniProt Q86Z02); conditions: at 10 µM
# [4] = target: Mitogen-activated protein kinase kinase kinase 9 (Homo sapiens) (UniProt P80192); conditions: at 1 µM
# [5] = target: Serine/threonine-protein kinase VRK2 (Homo sapiens) (UniProt Q86Y07); conditions: at 1 µM;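 note: remaining VRK2 kinase activity expressed as percent of uninhibited control, measured in MOPS buffer at pH 7.0 containing EDTA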
# [6] = target: Protein kinase C gamma type (Homo sapiens) (UniProt P05129); conditions: at 1 µM
compound,measurement,setting,value
O=[N+]([O-])c1ccc(-c2nc(-c3ccc(F)cc3)c(-c3ccncc3)[nH]2)cc1,residual activity,[1],106%
same,residual activity,[2],106%
same,residual activity,[3],101%
same,residual activity,[4],105%
same,residual activity,[5],inactive: 102%
same,residual activity,[6],104%
